## Binding screen against folded nucleic acids

From ROBIN, a set of small-molecule microarray screens (doi:10.1002/anie.202211358).

Oligonucleotides screened, 5′ to 3′:
PreQ1: PreQ1 riboswitch RNA pseudoknot, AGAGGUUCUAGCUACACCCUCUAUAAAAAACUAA. From B. subtilis. About 24,000 compounds screened, about 170 hits.
SAM-II: SAM-II riboswitch RNA pseudoknot, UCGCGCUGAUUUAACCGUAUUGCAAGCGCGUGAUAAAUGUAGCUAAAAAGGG. About 21,000 compounds screened, about 200 hits.
TPP: TPP riboswitch RNA three-way junction, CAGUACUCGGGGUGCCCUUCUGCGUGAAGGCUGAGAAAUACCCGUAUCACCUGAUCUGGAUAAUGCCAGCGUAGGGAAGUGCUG. About 24,000 compounds screened, about 160 hits.

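Each compound is printed as two spots on a slide made to bind it covalently, so it has no test concentration; the read-out is fluorescence of the bound, labelled oligonucleotide. For the PreQ1, TPP and SAM-II riboswitches the laboratory earlier reported (doi:10.1038/s41467-019-09493-3) 1 µM RNA, 2 h, and a rule that included a mean Z-score above 3 (spot signal-to-noise against the whole library), a score well above that on a control array, and duplicate spots agreeing (coefficient of variation under 100). The data file gives only the calls; its cut-offs may differ, and compounds hitting several targets are kept. The calls come from the array alone, and fixing a compound to the slide can hide its binding.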 Key: Y = hit, N = tested without a hit. The compounds are a random part of those screened. A dash means that no call is listed here.

compound | PreQ1 | SAM-II | TPP
COc1cccc(-c2cc(=O)c3ccccc3o2)c1N | N | N | N
COc1ccc(C2=C(C)C(Nc3ccc(OC)cc3OC)=NS2(=O)=O)cc1 | N | - | N
COC(CNC1CCN(C(=O)c2ccccc2)CC1)c1cccs1 (centres unmarked) | N | N | N
CC(C)(N)C(=O)N[C@H](COCc1ccccc1)C(=O)N1CCC2(CC1)CN(S(C)(=O)=O)c1ccccc12 | N | N | N
COC(=O)c1c(N)n(-c2ccc(C)c(C)c2)c2nc3ccccc3nc12 | N | N | N
CCCCn1nc(CCc2ccccc2)nc1[C@H]1CC[C@@H](N)C1 | N | N | N
CCc1nccc(-c2c(-c3ccccc3)ncn2CC2(CO)CCOCC2)n1 | N | N | N
OCCN1CCN(C2CCN(Cc3ccccc3Br)CC2)CC1 | N | N | N
N#CC1=C(N)OC2=C(C(=O)CCC2)C1c1ccc(Cl)cc1 (centres unmarked) | N | N | N
OCC1COCCN(Cc2ccc(C(F)(F)F)nc2)C1 (centres unmarked) | N | N | N
CCc1nc(N)sc1C(=O)N1CCC(c2cc(O)nc(C)n2)CC1 | N | N | N
CN(Cc1n[nH]c2c1CCCCC2)C(=O)CC1COCCN1 (centres unmarked) | N | N | N
COC(=O)C1=C(C)OC(N)=C(C#N)C1c1ccsc1 (centres unmarked) | N | N | N
Nc1nc2c(s1)C(c1ccc(O)cc1)CC(=O)N2 (centres unmarked) | N | N | N
NCc1cn[nH]c1-c1ccc(Cl)cc1 | Y | N | N
CC(C)(C)NCc1cc(Br)ccc1OCc1cccs1 | N | N | N
O=C(c1ccn2nnnc2c1)N1CCc2ncnc(NCCO)c2CC1 | N | N | N
CCn1c2ccccc2nc2cc3c(cc21)c(Cl)c(=O)c1ccccc13 | N | N | N
Nc1c(NC2CCCCC2)c2ccccc2oc1=O | N | N | N
CC1(C)CC2(CC(C)(c3csc(N)n3)OC2=O)C(=O)O1 (centres unmarked) | N | N | N
CCCc1n[nH]c2c1C(c1cccnc1)C(C#N)=C(N)O2 (centres unmarked) | N | N | N
CCOc1cc(C2c3c(-c4ccccc4O)n[nH]c3C(=O)N2CCCO)ccc1O (centres unmarked) | N | - | N
C[C@H]1COc2c(N3CCN(C)CC3)c(F)cc3c(=O)c(C(=O)O)cn1c23 | N | N | N
CC(C)NC(=O)Nc1ccc(-c2nc3c([nH]2)CCNC3)cc1 | N | N | N
Fc1ccc(CNc2ncnc3ccc(F)cc23)cc1 | N | N | N
Fc1cccc(Cl)c1Cn1ccnc1-c1cc2n(n1)CCNC2 | N | N | N
CC(C)(C)C(O)CN1CCCC1 (centres unmarked) | N | N | N
OC(CN1CCN(c2ccc(Cl)cc2)CC1)Cn1c2ccccc2c2ccccc21 (centres unmarked) | N | N | N
COc1cc(-c2nc3ncccn3c2Nc2ccccc2)ccc1O | N | N | N
CCC(O)Cn1nc(CC(N)=O)nc1-c1cc(C)c2c(=O)[nH][nH]c2n1 (centres unmarked) | N | N | N
O=C1NC(Cc2ccccc2)(C2CCNCC2)C(=O)N1Cc1cnccn1 (centres unmarked) | N | N | N
CC(C)c1ccc(C2c3c(-c4ccccc4O)n[nH]c3C(=O)N2CCO)cc1 (centres unmarked) | N | - | N
Nc1ccc(/N=N/c2ccccc2)c2ccccc12 | N | N | N
Cn1c(=O)n(C)c2cc(CNCC(O)c3ccccc3)ccc21 (centres unmarked) | N | - | N
FC(F)(F)c1ccc(Nc2nc(-c3cccnc3)cs2)cc1 | N | N | N
CCOC(=O)C1=C(N)c2ccccc2S1(=O)=O | N | N | N
CCNc1nc(C)cc(N2CCN(S(=O)(=O)c3ccc(OC)cc3)CC2)n1 | N | - | N
NC1=C(c2nc3ccccc3[nH]2)C(=O)CN1c1cccc(Cl)c1Cl | N | - | N
COc1ccc2cc3c(N)nn(C(=O)c4cccc(Cl)c4)c3nc2c1 | N | N | N

The first 4 entries again:

compound,PreQ1,SAM-II,TPP
COc1cccc(-c2cc(=O)c3ccccc3o2)c1N,N,N,N
COc1ccc(C2=C(C)C(Nc3ccc(OC)cc3OC)=NS2(=O)=O)cc1,N,-,N
COC(CNC1CCN(C(=O)c2ccccc2)CC1)c1cccs1 (centres unmarked),N,N,N
CC(C)(N)C(=O)N[C@H](COCc1ccccc1)C(=O)N1CCC2(CC1)CN(S(C)(=O)=O)c1ccccc12,N,N,N